# The entries are a selection whose mix differs from that of the whole data set. Calls are pooled over several reports, among them a noisy single-well screen. Some of the results follow.
# Chains of the proteins cited; added tags and fusions are not shown. A line that says so, or that is headed by a name, gives the form on record, which may keep a tag or linker.
# O14J1, as listed by the source: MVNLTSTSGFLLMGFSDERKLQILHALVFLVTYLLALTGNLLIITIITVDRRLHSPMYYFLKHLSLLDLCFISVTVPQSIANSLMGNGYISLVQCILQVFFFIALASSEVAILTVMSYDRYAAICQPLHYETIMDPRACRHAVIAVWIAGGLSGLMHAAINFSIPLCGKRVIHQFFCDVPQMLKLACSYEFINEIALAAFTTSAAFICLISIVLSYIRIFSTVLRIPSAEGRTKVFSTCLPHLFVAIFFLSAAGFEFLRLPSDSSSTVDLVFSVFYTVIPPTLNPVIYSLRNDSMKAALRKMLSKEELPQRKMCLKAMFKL
# O2A25, as listed by the source: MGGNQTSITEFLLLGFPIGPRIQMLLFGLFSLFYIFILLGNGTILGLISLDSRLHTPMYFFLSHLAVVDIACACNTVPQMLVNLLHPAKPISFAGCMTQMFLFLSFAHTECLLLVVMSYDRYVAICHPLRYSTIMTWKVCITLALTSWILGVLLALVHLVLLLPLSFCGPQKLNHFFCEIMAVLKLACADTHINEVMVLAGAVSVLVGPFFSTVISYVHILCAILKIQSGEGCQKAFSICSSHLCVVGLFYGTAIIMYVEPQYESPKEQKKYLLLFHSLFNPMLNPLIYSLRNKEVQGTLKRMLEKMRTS
# O14AG, as listed by the source: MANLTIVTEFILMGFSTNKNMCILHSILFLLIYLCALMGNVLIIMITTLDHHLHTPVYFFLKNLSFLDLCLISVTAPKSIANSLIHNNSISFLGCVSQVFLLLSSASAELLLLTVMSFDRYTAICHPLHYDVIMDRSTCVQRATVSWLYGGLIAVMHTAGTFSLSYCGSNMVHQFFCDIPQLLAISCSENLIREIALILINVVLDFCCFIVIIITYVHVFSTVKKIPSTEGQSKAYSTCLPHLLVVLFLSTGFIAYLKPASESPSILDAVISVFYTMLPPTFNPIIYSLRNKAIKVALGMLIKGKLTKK
# Columns and labels:
# Conditions in all cases: stereoisomer not certain
# O14A2 = test system: T1, O14A2
# T1 sequence (whole entry): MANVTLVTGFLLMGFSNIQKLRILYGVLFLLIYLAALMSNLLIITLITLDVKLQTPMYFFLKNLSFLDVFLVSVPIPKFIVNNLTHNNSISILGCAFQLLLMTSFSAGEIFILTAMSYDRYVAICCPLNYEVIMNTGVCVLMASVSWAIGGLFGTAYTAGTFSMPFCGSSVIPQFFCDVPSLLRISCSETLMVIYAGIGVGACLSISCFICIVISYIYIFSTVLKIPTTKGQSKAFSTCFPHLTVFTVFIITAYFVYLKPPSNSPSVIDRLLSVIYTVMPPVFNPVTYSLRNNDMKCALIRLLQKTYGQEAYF
# Procedure, shortened: (§1)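 Each entry records the cell line, G-protein, co-transfected protein and tags used. Methods varied with the source, often transient luciferase assays in mammalian cell lines. A receptor–molecule pair is called responsive (active) if the original authors judged its signal statistically different from baseline and non-responsive (inactive) otherwise.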
# O14AG [1] = test system: T2, O14AG
# T2 sequence (whole entry): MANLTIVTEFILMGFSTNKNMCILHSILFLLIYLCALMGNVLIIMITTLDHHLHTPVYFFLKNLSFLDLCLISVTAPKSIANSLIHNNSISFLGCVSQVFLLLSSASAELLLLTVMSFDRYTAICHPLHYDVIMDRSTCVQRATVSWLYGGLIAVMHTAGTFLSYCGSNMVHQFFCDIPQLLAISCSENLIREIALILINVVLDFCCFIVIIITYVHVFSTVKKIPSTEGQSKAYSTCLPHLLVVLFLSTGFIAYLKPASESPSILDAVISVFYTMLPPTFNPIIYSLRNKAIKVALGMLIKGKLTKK
# Procedure, shortened: as §1
# O14CZ = test system: T3, O14CZ
# T3 sequence (whole entry): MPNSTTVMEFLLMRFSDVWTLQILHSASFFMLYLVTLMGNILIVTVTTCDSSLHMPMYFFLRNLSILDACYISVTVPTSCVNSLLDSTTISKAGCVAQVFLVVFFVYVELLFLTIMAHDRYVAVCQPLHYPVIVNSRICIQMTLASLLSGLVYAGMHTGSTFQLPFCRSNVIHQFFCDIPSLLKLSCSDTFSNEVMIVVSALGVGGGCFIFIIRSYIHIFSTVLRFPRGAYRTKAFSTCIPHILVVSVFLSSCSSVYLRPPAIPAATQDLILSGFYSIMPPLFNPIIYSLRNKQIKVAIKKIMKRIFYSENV
# Procedure, shortened: as §1
# O14I1 = test system: T4, O14I1
# T4 sequence (whole entry): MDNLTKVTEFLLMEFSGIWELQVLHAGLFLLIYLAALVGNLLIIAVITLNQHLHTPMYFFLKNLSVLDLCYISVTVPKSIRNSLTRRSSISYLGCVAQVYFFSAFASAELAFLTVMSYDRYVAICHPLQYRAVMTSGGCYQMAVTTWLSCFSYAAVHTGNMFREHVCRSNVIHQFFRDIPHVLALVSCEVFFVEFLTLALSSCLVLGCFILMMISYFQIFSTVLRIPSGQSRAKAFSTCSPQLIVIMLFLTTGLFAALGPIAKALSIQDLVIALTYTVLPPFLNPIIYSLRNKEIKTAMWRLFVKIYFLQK
# Procedure, shortened: as §1
# O14J1 [2] = test system: T5, O14J1
# T5 sequence (whole entry): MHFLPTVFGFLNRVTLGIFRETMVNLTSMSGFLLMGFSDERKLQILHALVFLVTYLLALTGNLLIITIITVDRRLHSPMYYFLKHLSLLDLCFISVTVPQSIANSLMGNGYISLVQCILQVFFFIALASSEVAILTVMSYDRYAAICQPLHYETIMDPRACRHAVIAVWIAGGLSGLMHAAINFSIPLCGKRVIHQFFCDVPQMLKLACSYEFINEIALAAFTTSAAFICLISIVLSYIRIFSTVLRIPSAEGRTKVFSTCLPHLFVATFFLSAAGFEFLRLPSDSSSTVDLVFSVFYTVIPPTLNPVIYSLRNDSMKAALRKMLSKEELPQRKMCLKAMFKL
# Procedure, shortened: as §1
# O14K1 = test system: T6, O14K1
# T6 sequence (whole entry): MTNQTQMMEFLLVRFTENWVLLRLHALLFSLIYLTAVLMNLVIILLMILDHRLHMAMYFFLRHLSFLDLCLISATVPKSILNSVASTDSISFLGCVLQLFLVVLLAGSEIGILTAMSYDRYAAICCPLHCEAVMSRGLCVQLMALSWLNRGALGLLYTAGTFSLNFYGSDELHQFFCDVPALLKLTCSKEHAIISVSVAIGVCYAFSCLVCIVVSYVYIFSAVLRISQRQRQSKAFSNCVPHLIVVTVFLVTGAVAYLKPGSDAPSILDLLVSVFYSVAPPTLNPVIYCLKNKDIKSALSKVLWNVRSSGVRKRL
# Procedure, shortened: as §1
# O14L1 = test system: T7, O14L1
# T7 sequence (whole entry): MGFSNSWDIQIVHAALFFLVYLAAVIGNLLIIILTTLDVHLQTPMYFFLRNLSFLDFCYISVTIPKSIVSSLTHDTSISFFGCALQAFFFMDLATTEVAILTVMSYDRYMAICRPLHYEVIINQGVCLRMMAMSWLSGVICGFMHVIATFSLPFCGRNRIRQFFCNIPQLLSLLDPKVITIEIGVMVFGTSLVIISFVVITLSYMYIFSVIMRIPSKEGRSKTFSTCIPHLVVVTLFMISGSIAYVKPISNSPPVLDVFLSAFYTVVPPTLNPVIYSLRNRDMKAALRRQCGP
# Procedure, shortened: as §1
# O2A14 = test system: T8, O2A14
# T8 sequence (whole entry): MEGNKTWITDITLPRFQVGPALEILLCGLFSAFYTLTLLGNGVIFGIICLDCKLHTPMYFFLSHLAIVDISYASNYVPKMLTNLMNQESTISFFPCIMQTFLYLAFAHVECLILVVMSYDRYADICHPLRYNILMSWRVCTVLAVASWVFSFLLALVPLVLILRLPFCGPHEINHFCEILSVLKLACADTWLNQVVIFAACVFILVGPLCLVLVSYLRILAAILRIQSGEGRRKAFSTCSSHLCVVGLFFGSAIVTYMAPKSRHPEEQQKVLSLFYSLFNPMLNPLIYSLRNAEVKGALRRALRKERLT
# Procedure, shortened: as §1
# O2AE1 = test system: T9, O2AE1
# T9 sequence (whole entry): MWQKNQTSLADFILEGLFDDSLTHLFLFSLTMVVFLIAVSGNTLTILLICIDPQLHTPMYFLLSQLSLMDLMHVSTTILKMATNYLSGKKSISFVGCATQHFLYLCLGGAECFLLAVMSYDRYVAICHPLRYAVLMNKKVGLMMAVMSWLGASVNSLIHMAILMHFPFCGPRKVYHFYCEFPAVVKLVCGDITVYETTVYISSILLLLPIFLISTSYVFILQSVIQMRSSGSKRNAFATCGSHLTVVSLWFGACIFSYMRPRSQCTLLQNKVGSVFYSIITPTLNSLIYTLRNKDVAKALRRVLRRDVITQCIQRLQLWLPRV
# Procedure, shortened: as §1
# O2AG2 = test system: T10, O2AG2
# T10 sequence (whole entry): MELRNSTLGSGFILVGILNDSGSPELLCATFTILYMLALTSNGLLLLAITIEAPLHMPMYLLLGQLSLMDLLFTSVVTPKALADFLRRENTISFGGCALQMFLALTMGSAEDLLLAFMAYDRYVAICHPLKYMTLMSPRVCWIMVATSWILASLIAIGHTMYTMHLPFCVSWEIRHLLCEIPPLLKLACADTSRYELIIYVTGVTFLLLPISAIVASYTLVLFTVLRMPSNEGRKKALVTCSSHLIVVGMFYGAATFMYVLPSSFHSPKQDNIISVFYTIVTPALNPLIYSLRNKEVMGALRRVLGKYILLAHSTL
# Procedure, shortened: as §1
# O2AJ1 = test system: T11, O2AJ1
# T11 sequence (whole entry): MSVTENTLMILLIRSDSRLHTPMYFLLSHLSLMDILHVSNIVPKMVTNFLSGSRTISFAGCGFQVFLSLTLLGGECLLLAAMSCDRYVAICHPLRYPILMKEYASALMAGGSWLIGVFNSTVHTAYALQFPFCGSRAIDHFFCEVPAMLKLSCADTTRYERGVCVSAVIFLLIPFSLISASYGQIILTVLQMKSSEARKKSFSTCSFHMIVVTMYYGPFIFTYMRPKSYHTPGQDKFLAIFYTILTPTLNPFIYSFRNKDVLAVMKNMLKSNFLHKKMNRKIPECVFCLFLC
# Procedure, shortened: as §1
# O2AK2 = test system: T12, O2AK2
# T12 sequence (whole entry): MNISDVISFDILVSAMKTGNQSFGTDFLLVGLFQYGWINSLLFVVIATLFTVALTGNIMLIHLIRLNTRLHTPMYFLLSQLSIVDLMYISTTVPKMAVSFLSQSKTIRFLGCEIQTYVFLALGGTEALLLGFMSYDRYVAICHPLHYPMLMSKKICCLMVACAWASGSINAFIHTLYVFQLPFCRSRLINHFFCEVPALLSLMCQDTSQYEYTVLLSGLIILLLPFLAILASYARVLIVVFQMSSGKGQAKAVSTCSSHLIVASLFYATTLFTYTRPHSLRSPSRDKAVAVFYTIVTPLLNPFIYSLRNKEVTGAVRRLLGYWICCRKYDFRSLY
# Procedure, shortened: as §1
# O14J1 [3] = test system: O14J1; remark: listed apart in the source
# Procedure, shortened: as §1
# O14J1 [4] = test system: O14J1; remark: listed apart in the source
# Procedure, shortened: as §1
# O14AG [5] = test system: O14AG; remark: listed apart in the source
# Procedure, shortened: as §1
# O14AG [6] = test system: O14AG; remark: listed apart in the source
# Procedure, shortened: as §1
# O2A25 [7] = test system: O2A25
# Procedure, shortened: as §1
# O2A25 [8] = test system: O2A25; remark: listed apart in the source
# Procedure, shortened: as §1
# O2A25 [9] = test system: O2A25; remark: listed apart in the source
# Procedure, shortened: as §1
# O2A25 [10] = test system: O2A25; remark: listed apart in the source
# Procedure, shortened: as §1
SMILES,odorant receptor agonist call (O14A2),odorant receptor agonist call (O14AG [1]),odorant receptor agonist call (O14CZ),odorant receptor agonist call (O14I1),odorant receptor agonist call (O14J1 [2]),odorant receptor agonist call (O14K1),odorant receptor agonist call (O14L1),odorant receptor agonist call (O2A14),odorant receptor agonist call (O2AE1),odorant receptor agonist call (O2AG2),odorant receptor agonist call (O2AJ1),odorant receptor agonist call (O2AK2),odorant receptor agonist call (O14J1 [3]),odorant receptor agonist call (O14J1 [4]),odorant receptor agonist call (O14AG [5]),odorant receptor agonist call (O14AG [6]),odorant receptor agonist call (O2A25 [7]),odorant receptor agonist call (O2A25 [8]),odorant receptor agonist call (O2A25 [9]),odorant receptor agonist call (O2A25 [10])
COc1cc(C=O)ccc1O,inactive,inactive,inactive,inactive,inactive,inactive,inactive,inactive,inactive,inactive,inactive,inactive,,,,,,,,
CC12C=CCC1C1CCC3=CC(=O)CCC3(C)C1CC2 (stereo unspecified),inactive,inactive,inactive,inactive,inactive,inactive,inactive,inactive,inactive,inactive,inactive,inactive,,,,,,,,
CC1=CCC(C(C)(C)O)CC1 (stereo unspecified),inactive,inactive,inactive,inactive,inactive,inactive,inactive,inactive,inactive,inactive,inactive,inactive,,,,,,,,
CC1CCC(C(C)C)C(O)C1 (stereo unspecified),inactive,inactive,inactive,active,inactive,inactive,inactive,active,inactive,active,inactive,inactive,,,,,,,,
c1ccc(Oc2ccccc2)cc1,inactive,inactive,inactive,inactive,inactive,inactive,inactive,inactive,inactive,inactive,inactive,inactive,,,,,,,,
C=CC(C)(O)CCC=C(C)C (stereo unspecified),inactive,inactive,inactive,inactive,inactive,inactive,inactive,inactive,inactive,inactive,inactive,inactive,,,,,,,,
C=CCc1ccc(OC)c(OC)c1,inactive,inactive,inactive,inactive,inactive,inactive,inactive,inactive,inactive,inactive,inactive,inactive,,,,,,,,
COC(=O)c1ccccc1O,inactive,inactive,inactive,inactive,inactive,inactive,inactive,inactive,inactive,inactive,inactive,inactive,,,,,,,,
CCCCCCOC(=O)CCC,inactive,inactive,inactive,inactive,inactive,inactive,inactive,inactive,inactive,inactive,inactive,inactive,,,,,,,,
CCCCCCCC=O,inactive,inactive,inactive,inactive,inactive,inactive,inactive,inactive,inactive,inactive,inactive,inactive,,,,,,,,
CCC=CCCO,inactive,inactive,inactive,inactive,inactive,inactive,inactive,inactive,inactive,inactive,inactive,inactive,active,inactive,,,,,,
O=CCc1ccccc1,inactive,inactive,inactive,inactive,inactive,inactive,inactive,inactive,inactive,inactive,inactive,inactive,,,,,,,,
CC(=O)OC(C)(C)C1CC=C(C)CC1 (stereo unspecified),inactive,inactive,inactive,inactive,inactive,inactive,inactive,inactive,inactive,inactive,inactive,inactive,,,,,,,,
CC(=O)OCC=C(C)CCC=C(C)C,inactive,inactive,inactive,inactive,inactive,inactive,inactive,inactive,inactive,inactive,inactive,inactive,,,inactive,inactive,active,active,active,active
CC(C)=CCCC(C)=CC=O,inactive,inactive,inactive,inactive,inactive,inactive,inactive,inactive,inactive,inactive,inactive,inactive,,,,,,,,
CC(C)(C)c1ccc(CCC=O)cc1,inactive,inactive,inactive,inactive,inactive,inactive,inactive,inactive,inactive,inactive,inactive,inactive,,,,,,,,
CC(C)C=O,inactive,inactive,inactive,inactive,inactive,inactive,inactive,inactive,inactive,inactive,inactive,inactive,,,,,,,,
CC1COCc2cc3c(cc21)C(C)(C)C(C)C3(C)C (stereo unspecified),inactive,inactive,active,active,active,active,active,active,active,active,active,active,,,,,,,,
c1cnccn1,inactive,inactive,inactive,inactive,inactive,inactive,inactive,inactive,inactive,inactive,inactive,inactive,,,,,,,,
CCCCCCCC=CC=O,active,inactive,active,inactive,inactive,active,active,inactive,inactive,inactive,inactive,inactive,,,,,,,,
C=CCSCC=C,inactive,inactive,inactive,inactive,inactive,inactive,inactive,inactive,inactive,inactive,inactive,inactive,,,,,,,,
O=C1CCCCCCCCCCCC(=O)OCCO1,inactive,inactive,inactive,inactive,inactive,inactive,inactive,inactive,inactive,inactive,inactive,inactive,,,,,,,,
CC(C)CC(=O)O,inactive,inactive,inactive,inactive,inactive,inactive,inactive,inactive,inactive,inactive,inactive,inactive,,,,,,,,
CCCCCCCOC(C)=O,inactive,inactive,inactive,inactive,inactive,inactive,inactive,inactive,inactive,inactive,inactive,inactive,,,,,,,,

# Taken from above.
# Entry of CCCCCCCC=O under odorant receptor agonist call (O14K1): inactive
# Entry of COC(=O)c1ccccc1O under odorant receptor agonist call (O14I1): inactive

# From the M2OR odorant receptor database
